In paper PMC7548837 one finds binding data, which are given here for one substance.

For this experiment, the target named is T1, His-Strep-DrXth (AP endonuclease DrXth, DR_0354 protein, from Deinococcus radiodurans) (Deinococcus radiodurans) (UniProt Q9RXF9).
T1 sequence: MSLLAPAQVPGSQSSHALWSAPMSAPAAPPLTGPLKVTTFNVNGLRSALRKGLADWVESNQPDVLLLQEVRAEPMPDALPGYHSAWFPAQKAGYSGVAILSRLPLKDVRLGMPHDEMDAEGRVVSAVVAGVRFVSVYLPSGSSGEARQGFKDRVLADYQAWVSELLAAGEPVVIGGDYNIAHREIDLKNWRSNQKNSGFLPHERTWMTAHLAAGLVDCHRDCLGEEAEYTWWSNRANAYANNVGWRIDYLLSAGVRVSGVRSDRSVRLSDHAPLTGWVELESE
Briefly: pull-down; His-Strep-DrXth (200 ul, 0.5 mM) held on streptavidin beads, 4°C 3 h; beads incubated with 400 ul PolX (0.5 mM) and the same amount of BSA as control, 4°C 3 h; wash buffer 20 mM Tris pH 7.5, 100 mM NaCl, 0.05% Tween 20; beads boiled, 12% SDS-PAGE; both purified.

These are yes or no findings as the source states them, for the method shown. Binding can be weak; no strength is given. Tags and fused reporters may be left off the sequences shown.

Regarding “DrPolX (PolX of Deinococcus radiodurans) (enzyme)”, the binding result was “binds”.
